Test results: patent publication US20210371910
For some of these results: No signal at the amounts used counts as a negative. For some of these results: Where a protein sequence is shown, tags need not be part of it. For at least one entry, the source does not settle the construct or the ends of the probe.

How the values were obtained:
[1] = target: T1, T4 β-glucosyltransferase (Enterobacteria phage T4) (UniProt P04547); test: binding assay; conditions: purified recombinant protein, protein details: SEQ:3 is the coding DNA, variant of PCR product, unmodified C
T1 sequence: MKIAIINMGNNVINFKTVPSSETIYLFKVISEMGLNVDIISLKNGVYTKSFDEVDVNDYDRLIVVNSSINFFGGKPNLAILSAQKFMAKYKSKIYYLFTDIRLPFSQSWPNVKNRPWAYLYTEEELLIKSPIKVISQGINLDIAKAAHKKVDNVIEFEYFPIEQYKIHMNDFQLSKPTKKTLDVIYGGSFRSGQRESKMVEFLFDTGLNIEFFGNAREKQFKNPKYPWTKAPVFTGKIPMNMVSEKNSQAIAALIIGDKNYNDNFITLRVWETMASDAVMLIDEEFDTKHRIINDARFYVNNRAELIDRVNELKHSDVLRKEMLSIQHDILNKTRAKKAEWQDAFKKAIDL

BisI = test: enzyme reaction in vitro; conditions: 3 h, incomplete cleavage, purified recombinant protein, variant of PCR product, unmodified C
GlaI = test: enzyme reaction in vitro; conditions: purified recombinant protein

Sequence: AGAATTGGTTAATTGGTTGTAACACTGGCAGAGCATTACGCTGACTTGACGGGACGGCGGCTTTGTTGAATAAATCGAACTTTTGCTGAGTTGAAGGATCAGATCACGCATCTTCCCGACAACGCAGACCGTTCCGTGGCAAAGCAAAAGTTCAAAATCACCAACTGGTCCACCTACAACAAAGCTCTCATCAACCGTGGCTCCCTCACTTTCTGGCTGGATGATGGGGCGATTCAGGCCTGGTATGAGTCAGCAACACCTTCTTCACGAGGCAGACCTCAGCGCTCAAAGATGCAGGGGTAAAAGCTAACCGCATCTTTACCGACAAGGCATCCGGCAGTTCAACAGATCGGGAAGGGCTGGATTTGCTGAGGATGAAGGTGGAGGAAGGTGATGTCATTCTGGTGAAGAAGCTCGACCGTCTTGGCCGCGACACCGCCGACATGATCCAACTGATAAAAGAGTTTGATGCTCAGGGTGTAGCGGTTCGGTTTATTGACGACGGGATCAGTACCGACGGTGATATGGGGCAAATGGTGGTCACCATCCTGTCGGCTGTGGCACAGGCTGAACGCCGGAGGATCCTAGAGCGCACGAATGAGGGCCGACAGGAAGCAAAGCTGAAAGGAATCAAATTTGGCCGCAGGCGTACCGTGGACAGGAACGTCGTGCTGACGCTTCATCAGAAGGGCACTGGTGCAACGGAAATTGCTCATCAGCTCAGTATTGCCCGCTCCACGGTTTATAAAATTCTTGAAGACGAAAGGGCCTCGTGATACGCCTATTTTTATAGGTTAATGTCATGATAATAATGGTTTCTTAGACGTCAGGTGGCACTTTTCGGGGAAATGTGCGCGGAACCCCTATTTGTTTATTTTTCTAAATACATTCAAATAT (double strand) [PCR product, 5hmC]
- binding result ([1]; all cytosines 5hmC, glucosylation with UDPG read by MspI protection): binds
- activity on this sequence (BisI; all cytosines 5hmC, equal to 5mC): active
- activity on this sequence (GlaI; all cytosines 5hmC, 3 h, essentially equal to 5mC, variant of PCR product, unmodified C): active

Sequence: AGAATTGGTTAATTGGTTGTAACACTGGCAGAGCATTACGCTGACTTGACGGGACGGCGGCTTTGTTGAATAAATCGAACTTTTGCTGAGTTGAAGGATCAGATCACGCATCTTCCCGACAACGCAGACCGTTCCGTGGCAAAGCAAAAGTTCAAAATCACCAACTGGTCCACCTACAACAAAGCTCTCATCAACCGTGGCTCCCTCACTTTCTGGCTGGATGATGGGGCGATTCAGGCCTGGTATGAGTCAGCAACACCTTCTTCACGAGGCAGACCTCAGCGCTCAAAGATGCAGGGGTAAAAGCTAACCGCATCTTTACCGACAAGGCATCCGGCAGTTCAACAGATCGGGAAGGGCTGGATTTGCTGAGGATGAAGGTGGAGGAAGGTGATGTCATTCTGGTGAAGAAGCTCGACCGTCTTGGCCGCGACACCGCCGACATGATCCAACTGATAAAAGAGTTTGATGCTCAGGGTGTAGCGGTTCGGTTTATTGACGACGGGATCAGTACCGACGGTGATATGGGGCAAATGGTGGTCACCATCCTGTCGGCTGTGGCACAGGCTGAACGCCGGAGGATCCTAGAGCGCACGAATGAGGGCCGACAGGAAGCAAAGCTGAAAGGAATCAAATTTGGCCGCAGGCGTACCGTGGACAGGAACGTCGTGCTGACGCTTCATCAGAAGGGCACTGGTGCAACGGAAATTGCTCATCAGCTCAGTATTGCCCGCTCCACGGTTTATAAAATTCTTGAAGACGAAAGGGCCTCGTGATACGCCTATTTTTATAGGTTAATGTCATGATAATAATGGTTTCTTAGACGTCAGGTGGCACTTTTCGGGGAAATGTGCGCGGAACCCCTATTTGTTTATTTTTCTAAATACATTCAAATAT (double strand) [PCR product, 5mC]
- binding result ([1]; all cytosines 5mC, glucosylation specific to 5hmC): no binding
- activity on this sequence (BisI; all cytosines 5mC): active
- activity on this sequence (GlaI; all cytosines 5mC, 3 h digestion, variant of PCR product, unmodified C): active

Sequence: AGAATTGGTTAATTGGTTGTAACACTGGCAGAGCATTACGCTGACTTGACGGGACGGCGGCTTTGTTGAATAAATCGAACTTTTGCTGAGTTGAAGGATCAGATCACGCATCTTCCCGACAACGCAGACCGTTCCGTGGCAAAGCAAAAGTTCAAAATCACCAACTGGTCCACCTACAACAAAGCTCTCATCAACCGTGGCTCCCTCACTTTCTGGCTGGATGATGGGGCGATTCAGGCCTGGTATGAGTCAGCAACACCTTCTTCACGAGGCAGACCTCAGCGCTCAAAGATGCAGGGGTAAAAGCTAACCGCATCTTTACCGACAAGGCATCCGGCAGTTCAACAGATCGGGAAGGGCTGGATTTGCTGAGGATGAAGGTGGAGGAAGGTGATGTCATTCTGGTGAAGAAGCTCGACCGTCTTGGCCGCGACACCGCCGACATGATCCAACTGATAAAAGAGTTTGATGCTCAGGGTGTAGCGGTTCGGTTTATTGACGACGGGATCAGTACCGACGGTGATATGGGGCAAATGGTGGTCACCATCCTGTCGGCTGTGGCACAGGCTGAACGCCGGAGGATCCTAGAGCGCACGAATGAGGGCCGACAGGAAGCAAAGCTGAAAGGAATCAAATTTGGCCGCAGGCGTACCGTGGACAGGAACGTCGTGCTGACGCTTCATCAGAAGGGCACTGGTGCAACGGAAATTGCTCATCAGCTCAGTATTGCCCGCTCCACGGTTTATAAAATTCTTGAAGACGAAAGGGCCTCGTGATACGCCTATTTTTATAGGTTAATGTCATGATAATAATGGTTTCTTAGACGTCAGGTGGCACTTTTCGGGGAAATGTGCGCGGAACCCCTATTTGTTTATTTTTCTAAATACATTCAAATAT (double strand) [PCR product, unmodified C]
- activity on this sequence (GlaI; methylation dependent, digests only 5mC or 5hmC DNA): not active
